These are yes or no findings as the source states them, for the method shown. Some results given as binding are weak or reduced against the parent protein; the word gives no strength.
Target: T1, Flag-PTHR1-YFP (UniProt Q03431 27-593)
T1 sequence (looked up): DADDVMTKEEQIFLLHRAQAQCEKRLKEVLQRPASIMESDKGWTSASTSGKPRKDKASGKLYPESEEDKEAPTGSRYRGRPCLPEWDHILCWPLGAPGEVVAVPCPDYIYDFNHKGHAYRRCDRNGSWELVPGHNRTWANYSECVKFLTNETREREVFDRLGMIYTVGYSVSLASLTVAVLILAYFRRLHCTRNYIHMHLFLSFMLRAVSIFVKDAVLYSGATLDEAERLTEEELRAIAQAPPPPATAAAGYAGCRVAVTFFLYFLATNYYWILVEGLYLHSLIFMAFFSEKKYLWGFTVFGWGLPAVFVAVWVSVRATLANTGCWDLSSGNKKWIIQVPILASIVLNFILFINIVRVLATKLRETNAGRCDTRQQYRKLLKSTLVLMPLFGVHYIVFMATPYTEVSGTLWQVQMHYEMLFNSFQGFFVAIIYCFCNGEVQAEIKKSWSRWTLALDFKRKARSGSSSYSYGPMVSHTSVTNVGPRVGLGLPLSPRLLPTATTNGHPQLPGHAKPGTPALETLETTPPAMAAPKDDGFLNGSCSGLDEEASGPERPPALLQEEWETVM
Assay: BRET between beta-arrestin2-Rluc and Flag-PTHR1-YFP in co-transfected HEK293T cells, recruitment induced by agonist peptides

The chains behind the UniProt entries cited, without tags or fusion partners.
UniProt P32121: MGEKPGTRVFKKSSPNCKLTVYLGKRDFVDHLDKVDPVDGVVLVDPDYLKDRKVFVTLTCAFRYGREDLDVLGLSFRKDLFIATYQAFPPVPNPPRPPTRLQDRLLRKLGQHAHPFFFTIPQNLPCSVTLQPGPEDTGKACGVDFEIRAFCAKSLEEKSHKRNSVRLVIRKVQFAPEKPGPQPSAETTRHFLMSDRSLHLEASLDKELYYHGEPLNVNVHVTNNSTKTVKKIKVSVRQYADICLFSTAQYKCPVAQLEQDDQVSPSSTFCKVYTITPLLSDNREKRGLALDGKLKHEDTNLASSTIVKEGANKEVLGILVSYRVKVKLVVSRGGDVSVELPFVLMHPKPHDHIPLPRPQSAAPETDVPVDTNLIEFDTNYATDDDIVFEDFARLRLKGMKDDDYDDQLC

Question: “beta-arrestin2-Rluc (from UniProt P32121 1-409)” was tested. Which binding did it give?
Answer: Its binding is “binds”.

From patent US20220298217A1 (FLAGSHIP PIONEERING INNOVATIONS VI, published 2022)
